In publication PMC6510727:
No constants are given. Whether binding was seen depends on the method and setting. Binding calls can cover weak binding; strength is not graded here.

Sequences of proteins named here, by UniProt entry; tags and fusion partners are left off. A change or cut given only in a name is not applied to a line headed by its entry.
UniProt P38407: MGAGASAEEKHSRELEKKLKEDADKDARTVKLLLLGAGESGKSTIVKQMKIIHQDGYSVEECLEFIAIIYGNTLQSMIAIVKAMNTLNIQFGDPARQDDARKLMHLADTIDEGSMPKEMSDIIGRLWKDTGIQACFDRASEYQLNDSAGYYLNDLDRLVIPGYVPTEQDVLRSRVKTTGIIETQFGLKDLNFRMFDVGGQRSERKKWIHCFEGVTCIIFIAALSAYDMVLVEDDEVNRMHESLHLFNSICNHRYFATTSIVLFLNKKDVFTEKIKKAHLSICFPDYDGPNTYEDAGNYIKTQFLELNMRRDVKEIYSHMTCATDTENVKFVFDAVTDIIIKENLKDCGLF
UniProt H1AAN5: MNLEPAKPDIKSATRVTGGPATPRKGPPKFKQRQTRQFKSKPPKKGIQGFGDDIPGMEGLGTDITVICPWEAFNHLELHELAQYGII

Target: biotinylated GTPγS-bound transducin α subunit (Tα-S*), frog (frog (Rana catesbeiana)) (UniProt P38407)
Test: SPR; biotinylated Tα-S* immobilised on SA chip (~2300 RU); recombinant PDEγ or purified PDE injected at 1-16 nM on the same chip; binding and dissociation terminated before completion; Biacore X100, 25 °C, K-gluc buffer with 0.005% Tween 20, no cGMP; both purified

recombinant frog PDEγ (inhibitory γ subunit of rod cGMP phosphodiesterase) (from UniProt H1AAN5)
binding: binds
